Experimental data published in article PMC10313831.

Chains of the proteins cited; added tags and fusions are not shown. A line that says so, or that is headed by a name, gives the form on record, which may keep a tag or linker.
RPA (Rfa1-Rfa2-Rfa3) (Saccharomyces cerevisiae), one chain, as listed by the source, chain 1 of 3: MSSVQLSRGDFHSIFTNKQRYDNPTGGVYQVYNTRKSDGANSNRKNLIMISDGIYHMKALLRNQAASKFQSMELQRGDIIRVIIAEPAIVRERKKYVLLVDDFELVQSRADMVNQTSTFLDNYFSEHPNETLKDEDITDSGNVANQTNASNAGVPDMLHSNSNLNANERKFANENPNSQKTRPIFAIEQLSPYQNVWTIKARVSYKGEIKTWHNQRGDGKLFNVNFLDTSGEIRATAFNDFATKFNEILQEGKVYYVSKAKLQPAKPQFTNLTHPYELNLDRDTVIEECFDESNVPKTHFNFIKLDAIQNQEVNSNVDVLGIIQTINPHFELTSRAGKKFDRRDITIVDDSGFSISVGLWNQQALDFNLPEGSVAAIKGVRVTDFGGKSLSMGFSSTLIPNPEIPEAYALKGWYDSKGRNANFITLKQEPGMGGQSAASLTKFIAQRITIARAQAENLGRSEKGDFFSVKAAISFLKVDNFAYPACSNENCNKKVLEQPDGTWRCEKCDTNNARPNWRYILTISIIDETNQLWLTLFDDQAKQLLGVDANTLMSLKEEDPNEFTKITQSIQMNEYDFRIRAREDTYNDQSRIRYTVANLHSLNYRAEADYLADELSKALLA
RPA (Rfa1-Rfa2-Rfa3) (Saccharomyces cerevisiae), one chain, as listed by the source, chain 2 of 3: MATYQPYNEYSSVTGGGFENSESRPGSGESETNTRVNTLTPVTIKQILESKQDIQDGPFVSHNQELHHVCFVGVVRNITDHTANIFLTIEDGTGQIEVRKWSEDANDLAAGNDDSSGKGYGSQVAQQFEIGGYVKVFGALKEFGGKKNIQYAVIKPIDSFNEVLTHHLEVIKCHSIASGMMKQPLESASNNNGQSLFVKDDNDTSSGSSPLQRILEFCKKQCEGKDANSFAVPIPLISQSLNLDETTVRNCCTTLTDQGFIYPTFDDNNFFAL
RPA (Rfa1-Rfa2-Rfa3) (Saccharomyces cerevisiae), one chain, as listed by the source, chain 3 of 3: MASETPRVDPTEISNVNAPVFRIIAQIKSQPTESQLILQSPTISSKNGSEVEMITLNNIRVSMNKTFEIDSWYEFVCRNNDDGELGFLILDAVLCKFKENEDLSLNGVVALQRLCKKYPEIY

Test system: RPA (Rfa1-Rfa2-Rfa3) (Saccharomyces cerevisiae)
Experiment: EMSA
Conditions: EMSA: 20 mM Tris-HCl pH 7.5, 150 (or 15) mM KCl, 1 mM DTT, 100 ug/mL BSA, 5 nM DNA, 30 C 10 min, recombinant protein, protein details: His tag (MST: His-tagged RPA, RED-tris-NTA dye), single-stranded DNA
[1] = 15 mM KCl, similar to 150 mM, label: 5'-32P

| Sequence | binding result [1] | also measured |
| --- | --- | --- |
| TTTTTTTTTTTTTTTTTTTTTTTTTTTTTTTTTTTTTT [dT(38)] | – | binding result (below 40-nt minimum for second RPA, label: 5'-32P): binds |
| TTTTTTTTTTTTTTTTTTTTTTTTTTTTTTTTTTTTTTTTTTTTTTTTTTTT [dT(52)] | – | binding result (below 54-nt minimum for third RPA, label: 5'-32P): binds |
| TTTTTTTTTTTTTTTTTTTTTTTTTTTTTT [dT(30)] | – | binding result (15 mM KCl, similar to 150 mM, label: 5'-32P (EMSA), unlabeled (MST)): binds |
| TTTTTTTTTTTTTTTTTTTT [dT(20)] | binds | – |
| TTTTTTTTTTTTTTTTTTTTTTTTTTTTTTTTTTTTTTTTTTTTTTTTTT [dT(50)] | binds | – |
| TTTTTTTTTTTTTTTTTTTTTTTTTTTTTTTTTTTTTTTTTTTTTTTTTTTTTTTTTTTT [dT(60)] | binds | – |
| TTTTTTTTTTTTTTTTTTTTTTTTTTTTTTTTTTTTTTTT [dT(40)] | binds | – |

The exact form of at least one protein or probe is not confirmed. At least one verdict rests on a figure or table, not on a statement of the authors.
